These are yes or no findings as the source states them, for the method shown. Some binding calls cover weakened binding; strength is not graded here.
T1: #01
T1 sequence (peptide): EEEEDEEDEEDE

Amino acid sequences for entries named in this document (tags omitted).
UniProt P63158: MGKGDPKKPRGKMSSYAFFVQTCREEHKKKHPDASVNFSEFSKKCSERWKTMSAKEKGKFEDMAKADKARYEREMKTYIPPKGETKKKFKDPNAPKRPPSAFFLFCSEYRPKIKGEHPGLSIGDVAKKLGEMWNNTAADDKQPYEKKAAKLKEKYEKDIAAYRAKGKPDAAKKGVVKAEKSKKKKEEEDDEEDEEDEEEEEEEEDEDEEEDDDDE

T2: #02
T2 sequence (peptide): EDEEDEEDEEEE

T3: #03
T3 sequence (peptide): EDEEDEEEEEDE

T4: #04
T4 sequence (peptide): EEDEEEEEDEED

T5: #05
T5 sequence (peptide): DEEEEEDEEDED

T6: #06
T6 sequence (peptide): EEEEDEEDEDEE

T7: #07
T7 sequence (peptide): EEDEEDEDEEED

T8: #08
T8 sequence (peptide): DEEDEDEEEDDD


What was measured:
[1] = target: T1, #01; test: dot blot of synthetic peptides on nitrocellulose, HRP anti-human IgG
[2] = target: T2, #02; test: as above
[3] = target: T3, #03; test: as above
[4] = target: T4, #04; test: as above
[5] = target: T5, #05; test: as above
[6] = target: T6, #06; test: as above
[7] = target: T7, #07; test: as above
[8] = target: T8, #08; test: as above
[9] = target: activated HMGB1 (prepared from RAW cells) (UniProt P63158); test: Western blotting, antibody at 2 µg/ml

Row | Binder | binding [1] | binding [2] | binding [3] | binding [4] | binding [5] | binding [6] | binding [7] | binding [8] | binding [9]
1 | #10-22 humanized antibody EV007156 (antibody, human IgG1, lambda, V domains shown) VH: EVQLVESGGGLVQPGGSLKLSCAASGFTFSNAAMYWVRQASGKGLEWVARIRTKPNNYATYYADSVKGRFTISRDDSKNTAYLQMNSLKTEDTAVYYCTAPRRTEGIVSSGVDYWGQGTLVTVSS VL: YELTQPPSVSVSPGQTASITCSGDELPKRYAYWYQQKPGQSIVRVIYKDSERPSGIPERFSGSSSGTTATLTISGTQAEDEADYYCHSTYSDDKLPVFGGGTKLTVLG | no binding (tested: 1 µg/ml EV007156, peptide 4 µg/spot) | no binding (tested: 1 µg/ml EV007156, peptide 4 µg/spot) | no binding (tested: 1 µg/ml EV007156, peptide 4 µg/spot) | no binding (tested: 1 µg/ml EV007156, peptide 4 µg/spot) | no binding (tested: 1 µg/ml EV007156, peptide 4 µg/spot) | no binding (tested: 1 µg/ml EV007156, peptide 4 µg/spot) | no binding (tested: 1 µg/ml EV007156, peptide 4 µg/spot) | no binding (tested: 1 µg/ml EV007156, peptide 4 µg/spot) | 
2 | rat anti-HMGB1 monoclonal antibody #10-22 (antibody, V domains shown) VH: AVQLVESGGGLVQPKESLKISCAASGFTFSNAAMYWVRQAPGKGLEWVARIRTKPNNYATYYADSVKGRFTISRDDSKSMVYLQMDNLKTEDTAMYYCTAPRRTEGIVSSGVDYWGQGVMVTVSS VL: YELIQPPSASVTLGNTVSITCSGDELPKRYAYWYQQKPDKSIVRVIYKDSERPSGISDRFSGSSSGTTATLTIRDTQAEDEADYYCHSTYSDDKLPVFGGGTKLTVLG |  |  |  |  |  |  |  |  | binds
